PubChem BioAssay AID1224826 – NIAID – 2016
The whole screen tested about 17,000 reagents; below is a part drawn at random. About 1,110 of all reagents (6.6%) count as active. 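Active means lowered or raised reporter signal; replicate intensities are raw and not normalised per plate.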 Entries without a mark were called inactive. A reagent listed more than once was tested more than once; the source does not tell the runs apart.

Aim: 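Genes that change LPS-induced Tnf promoter activity in mouse macrophages when knocked down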 (primary screen)
System: RAW264.7 G9 macrophages from mouse bearing reporters for p65 (GFP) and the Tnf promoter (mCherry)
Knock-down reagent: siRNA pool against mouse genes, 100 nM
Timing: 16 h of LPS stimulation, after 2 days of siRNA transfection
Challenge: bacterial lipopolysaccharide (Salmonella minnesota R595), 10 ng/ml
Measurement: 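Imaged Tnf reporter mCherry in nuclei, minus background, normalised per plate to the median and expressed as robust z-scores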
Reading the numbers: Tnf reporter robust z-score: higher = stronger Tnf promoter reporter signal after LPS; Tnf reporter intensity: higher = stronger Tnf promoter reporter signal
Hit rule: 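a well counts as active at a score of -1.3 or below (Tlr4 knock-down control median) or above 3 (raised signal); controls and wells holding fewer than 50 cells are excluded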
Meaning of the calls: active = Tnf reporter clearly lowered or raised; inactive = no clear change in Tnf reporter

| target | Tnf reporter robust z-score | fewer than 50 cells in well | Tnf reporter intensity, replicate 1 | Tnf reporter intensity, replicate 2 |
| --- | --- | --- | --- | --- |
| B3gat3 | -0.26 | enough cells in well | 172 | 135 |
| Notch4 | -0.19 | enough cells in well | 279 | 128 |
| Ccdc7a | 1.76 | enough cells in well | 359 | 96 |
| Ghitm | 1.7 | enough cells in well | 319 | 262 |
| Cd82 | -0.28 | enough cells in well | 199 | 150 |
| Slc25a27 | -0.39 | enough cells in well | 210 | 112 |
| Tpbpa | -0.71 | enough cells in well | 98.8 | 62.9 |
| Vip | -1.34 (active) | enough cells in well | 172 | 30.8 |
| Chl1 | -0.34 | enough cells in well | 120 | 192 |
| Prh1 | 0.3 | enough cells in well | 126 | 159 |
| Rapgef2 | -0.98 | enough cells in well | 209 | 135 |
| Lce1c | 0.65 | enough cells in well | 353 | 84.7 |
| Lce1c | 0.31 | enough cells in well | 335 | 72.3 |
| Neurog2 | 0.67 | enough cells in well | 167 | 192 |
| Smu1 | – | fewer than 50 cells per well; well left out of calls | 58.7 | 33.9 |
| Cln6 | -0.81 | enough cells in well | 166 | 165 |
| Il17b | 1.01 | enough cells in well | 336 | 191 |
| Thap11 | -1.18 | enough cells in well | 66 | 60.3 |
| Sdhaf2 | -0.52 | enough cells in well | 234 | 65 |
| Top2b | 0.06 | enough cells in well | 242 | 134 |
| Ifitm10 | 0.02 | enough cells in well | 178 | 148 |
| Hal | 0.39 | enough cells in well | 264 | 217 |
| Resp18 | -1.14 | enough cells in well | 77.1 | 80.1 |
| Chst1 | 0.52 | enough cells in well | 180 | 226 |

Entries above whose target name starts with R or r:
| target | Tnf reporter robust z-score | fewer than 50 cells in well | Tnf reporter intensity, replicate 1 | Tnf reporter intensity, replicate 2 |
| --- | --- | --- | --- | --- |
| Rapgef2 | -0.98 | enough cells in well | 209 | 135 |
| Resp18 | -1.14 | enough cells in well | 77.1 | 80.1 |
